Assay results reported in PMC9426511.

B1: EsaC (protein, UniProt A0AAU8PNE5 1-494)
chain: MRILVLLLLLCGGFSAPSLAQPIPWRGAPFFVSSQSATLASVLRDLGANSGVPVVVSPRITESYAGELRDTPRGTILAELSRLYQLLPYYDGNTLYIYKAQEMEQATLAPSYLAGSVLKRLLQRSGLLDGYACQVRQVASANALQVNGVPACLSQVTTLAKQLDEQDLNLEQNRETVAVFPLKYANASDTSYAYRNQSVVVPGLVSVLREMAQGHAMPLPDSKSGTPPSNSSGLPTFSADLRQNAVLIRDRKQNMALYRQLIQQLDKRPTLIEISVTIIDVDAGDINELGIDWSASARIGGGQVSFNNSGGLNADSFSSLIANSGSFMVRLSALEQQSKAKIVSRPSVVTLDNVQAVLDRSITFYTKLRSEKNPKLEAITAGALMRVTPRLIRERGGNKILLILNIEDGRQGAPLSQAESLPQVQNAEIATQATLNLGQALLLGGFVQNENTQGVRKIPLLGDIPLIGGLFRSTDSKVHSVVRLFLIKAEPRQM
B2: EsaT (protein, UniProt A0AAU8P212 1-260)
chain: MMAELNHWWPLLGIAMMRPLGIMLIMPLFNSAMLGGALIRNALALMAALPALPQLAALVLPSPLQAPLHYGGLLLGELVLGLLLGFSAALPLWALNMAGFIIDTMRGASIAVLFNPLLGEQSSPMGVLFSQLVGVLFIVGGGFHALLAALFSSYGDLPPGQYWLWGRGFIPLLMHLWHLLYTLALSFSMPAMVMMVLVDLALGFINRSVQQLNVFTLSMPIKSAMVLLMLIISLPFALDGVQALFTRFDGGLLRQLAEAL
B3: EsaU (protein, UniProt A0AAU8P1U8 1-352)
chain: MSEKTEQPTAKRLRDAREEGQVAKSQDISATVQLAVILLWMVTEGPTLYAAIGGFIDATLATLNLPLPDAIALLTGKAAALVVRFVFSLAALLAVTLILTGLVETGFLFAPKAIMPSAERINPLNNAKQMVSLLKLFELGKMVLKIVILGLTFTYFIRGYAASFAQLVRADAEAGLWVTSKMTLWMWGILLLLTALFAVVDYSMQYRHLRKQLMMSHEDIKQEFKNAEGSPEIKQRRRELHREIQSGSLADSVSSASVVVRNPTHIAVCLRYCEGETPLPQVVEYGRGARARHIVALAEARRIPVVENIPLARALIATTRPGDYVPEALFVAVAQLLRLLRDETEEEEEEDA
B4: EseB (protein, UniProt A0AAU8P3X3 1-198)
chain: MTVNTDYHGGVNHVGANGYDNNLDRMAGQGDSIMSDGISVLYQFMTLFTDLAQGKYDQMKAKADRARNSQQVANQIDAIIAKFKKAGDKGDLPPEVLKYLRDHNINITVQDDGKNATSDIDQYLKSIGHPDGKGLDKGELDVIKGALETDSGRSSDFVTQAQLQIQKTMQSYNVCVSLINSMQTLLAEMNKSIAQNIR
B5: EseC (protein, UniProt A0AAU8P6S4 1-478)
chain: MNNITETRYTTPPLGGSGQNDSVQSQHDHPQIGAGALDPLRPPPQRQQDHDPKREFHRPPAPRQPVTLRLAEGALNRILDIFGPRVDGKPLTVSDIERTPMEAMTLAASLLGVKALGDNANLKALAMEIRTHGAENLRLRQNEDLRKQVEKSIEDQAKAQKAGIFSAIVDWIVSIAEVVSGIGKILIGDFAGGAMDVAAGCAGLVKAACETLALIDKDNAEKYQSIADVAGKVQLAFEIAGMAVDLVSVGRGVMASKSIAKATETVMEGAAGEALHTAVTQGSETAIKTAASEIGKQVAEQVADQVTRTLAEQSGRFLGQGHLLEAFSKQAIEQMVTRAVEAAAKKALQSGVEMSAKELSKQVVKEVQREVIKAIVGACIDSVANNAKSTTRSTLQGVNGVYQGVITKERADLQKVIQQLINETDFMQFMLEEFEKIKKRAKEDIGSLMDGAGKALSAAADAQQKSGAMLSNIAANIA
B6: EseD (protein, UniProt A0AAU8P1W8 1-193)
chain: MTTIDSGSHGVNGITPPDGHRYVSQDRGGDAIGQLNELMVQLGELFGKLRDVLRQYQQTQQSNAFKMQKTAYDTRVDAIDKDFQAKQAQAIAQILGGIAQTVGGAFGEEAHTISNGVNSMTQGIVGVGYVNDMSRQSQEEQALSEYQHGLAEQQLKRADETLEKALKISGDLREILTTLNQAHERIASSVRMS
B7: EseE (protein, UniProt A0AAU8P1U3 1-127)
chain: MDDVSRFMIAEGLRPAPAHFLESEFLMGQRIETPRFYLTYRQEGERLILCDFTARNDDGQAVIALMGLLRRLIGALPLLRYIDAMILPAPHDRALDRMRRRLTDVMLAEGAQPLRLDDALWLRYCCR
B8: EsaD (protein, UniProt A0AAU8P989 1-396)
chain: METCFKLTLLNGPLRGQALRLPAGEFTLGEREESDLHLALESGGSASLSVSAQGVSLATPTACWVGGRPWHGDRLPLNQGIDLAGIHFALTDGASDTPLPQIAKRRTGRRTTLLYLLLGALLPTLGIIGLLWPSAAPTPPSPRAWLPQALQNEPGLQAIWQSSGDLLLRGHCQESGRLAALRQRLQASGIHLQQEAVCNDTLRQALRALLNSYGYQNMIITLQDNGDAAIDGDFQGNSAPLAQALDRLPGLGRWQFTDSGAQTLSRLINALRAEGLLEGISARRTEHAWLLSGHLAPPQQARLNHLLQRLGQQGEGDTLPLRFIGMAGAFDAEDLLPAPIAGVGGADNALYLQLSNGMRLLPGAPLSQGMRIVQITASGVSLAGRLRLIFIPLHSR
B9: EsrB (protein, UniProt A0AAU8P338 1-214)
chain: MTISILPLNILIVEDHALLADGIRNLLDSQPRYRVVGAVSNGLAVYEACQRLSPDLVLLDLGLPGMDGVDVIRQLRRRWSDMRIVVVTASSEARRGSEALAAGALAYVLKQSPQQTLLAAMQHASLGKTFVDPALRLDSLVASSDMAQEPPLTLRERQILKLVAEGKRNRDIAELLSISLKTVETHRLNLMRKLDAHNAAELSNWARRLGVLEF
B10: EsrC (protein, UniProt A0AAU8PC08 1-230)
chain: MPNLHLLLVTGPDNIALLPEPGALLIADSRPPGIASTRHTRLFSYPCNLLHGICRDLQHLMYSGPAPVAPPQPLPIAMAPGLLKTLLRLADADDETMLRLVLAYSLTLECQRTSTLLRSLLTADADLFDTLYRHRLEPWPVARYADLFGLSQRKFNQLFNDKFGMAPKRWLLRQRLGHARQLLETTSKKVIDVALESGFCNAAHFSDCFRRHFSQSPSEVRRASLHHRAG
B11: EsaJ (protein, UniProt A0AAU8P3W1 1-243)
chain: MKIIPWILIFGLLPLLSGCKSELYSKLDEKEANQMMALLIYNNIPADKRVEKEGVTLLVERERFVDAVEVLRQNGLPRRKTVTMQELFPSGQLVTSPEQEEAKLNYLKSQQIEKMLGSMDGVINAEVSVAEPRVIVGEAPPQASAAVFIKYSPEINLPAREAEIRALIHNGIPGLAPDRISVTLQRAEYRYQPPTIAAAEDHKITLYGHPLPREALVAAACTLLFGLLISLFLWLRRPGRSTS
B12: EsaB (protein, UniProt A0AAU8P1T4 1-159)
chain: MPARRSHINSGMHPIRSGAPPLYPNDMNRKLNPRQALQQLAMYLNQADWSQGQQSLTGTLQDRRLKGRYFASGMCVAITIAWPLAQASQACLLLAASPETLDDALYVEQEQFWLLRRYPPALTEAELDLLLQQQLAMAGLLAPAVRDTHPESPFIGRYA
B13: EsaI (protein, UniProt A0AAU8P5G8 1-83)
chain: MNVDALNAIGQALTGGTPEVNDPVPLPAQQRFAALMNAPQAGDSPDALLAIQGTLNELAVGVDLTAKVAGSVAQSINKLVNLS
B14: EsaL (protein, UniProt A0AAU8P1W1 1-342)
chain: MLNIHSASLAPTDRQTIVPHAAPGPENGASVIAQAMVELSESQSDALEETQEDLSFALGGRLRELRNGKEHDSSSRDRVLMHKLVAEVAMIAEEDLSDLNDDSAWQHAPQLLSALQAQYPAPGAAALHLAAWLAHRQPGARLRSRMEAALASLMADDQTAIALFATLEFGAVTPGLRQELLQLYHRALAPRRQISQWLNLLGERQQRHKKIRAMLHLLAYALSASGQPIVGSHLAAVIDDLRQLLRLLGLEDYCDRAAAALGMPAISGEGLMLLVVQLIEQIWLNADTLAEMLPPQAELDRYRLLQSLGKLIQLLPDACFNDADHRLQLDDAIHNLSDSIVS
B15: EsaN (protein, UniProt A0AAU8PEE6 1-438)
chain: MRLPDAQKILDRLDCPTLPSVTDVRLEGRLLTVGATLLRAHLPGVGLGEQCTLPDGSPAEVVAIEGDQALLSPYHAPLGLANGMLVTPSGAQARIGVGEALLGRVIDALGQPMDGCAPPQAAQWRSLESPAPDPMQRAPIDTLLPMGVRAIDAALSVGVGQRLGIFSPAGCGKSTLLGMLAAHSQVDVVVLALIGERGREVREFIEQIMSPELRARSVVILATSDRPALERIKAADTATVIAEYFRDRGHHVLLLVDSLTRYARAIREIALAAGEPMVSGGYPPSLYARLPRLLERAGPAACGSITAFYTVLVEQKSDPLAEEVRSLLDGHIVLSRRLAEASHYPAIDILASISRVMSQVVTPQHRQAANRLRHLLATWQEIALLVRVGEYRAGQDADADDAMARREAIASLLCQQTDERCPLSATLSALYSAVGQPC
B16: EsaR (protein, UniProt A0AAU8P1T9 1-215)
chain: MSLTEQPAELIALLVTLSLLPLLIVMGTSFLKLSVVFALLRNALGIQQIPPNIALYGLALILTLFIMTPVGTAVQARLADAPAEAQTTLLARLSDNTLDPYRQFLRQHTSATQLHFFRQVATKSWPASVREQISDDSLLLLMPAFAVSQLVEAFQIGLLLFLPFIAIDLIVSNILLAMGMMMVSPMTISMPFKLLVFILVGGWDKLLGQLLLSYR
B17: EsaS (protein, UniProt A0AAU8P1V4 1-89)
chain: MGKAQLVQLASELLWLVLILSLPVVLVASLVGVLVGLVQALTQIQDQTVSFAIKLVAASVTLALTYHWMGSALFSYAGRAMDLIAQMGG

Target: EscE (Edwardsiella piscicida)
Test: two-hybrid; bait in pGBKT7 (GAL4 DNA-binding domain), prey in pGADT7 (GAL4 activation domain), yeast AH109; growth as blue colonies on SD/-Trp -Leu -His -Ade

**Q.** For B1, which binding is on record?
**A.** Its binding is “no binding”.

**Q.** Which binding does the source give for B2 here?
**A.** Its binding is “no binding”.

**Q.** With B3 as the binder, how does the binding read?
**A.** Its binding is “no binding”.

**Q.** How did the binding turn out when B4 was run?
**A.** Its binding is “no binding”.

**Q.** With B5 as the binder, how does the binding read?
**A.** The binding was “no binding”.

**Q.** For B6, which binding is on record?
**A.** The binding was “no binding”.

**Q.** For B7, which binding is on record?
**A.** The binding was “no binding”.

**Q.** With B8 as the binder, how does the binding read?
**A.** The binding was “no binding”.

**Q.** With B9 as the binder, how does the binding read?
**A.** Its binding is “no binding”.

**Q.** How did the binding turn out when B10 was run?
**A.** The binding was “no binding”.

**Q.** How did the binding turn out when B11 was run?
**A.** The binding was “no binding”.

**Q.** How did the binding turn out when B12 was run?
**A.** Its binding is “no binding”.

**Q.** For B13, which binding is on record?
**A.** Its binding is “no binding”.

**Q.** For B14, which binding is on record?
**A.** Its binding is “no binding”.

**Q.** B15 was tested. Which binding did it give?
**A.** Its binding is “no binding”.

**Q.** B16 was tested. Which binding did it give?
**A.** Its binding is “no binding”.

**Q.** Which binding does the source give for B17 here?
**A.** Its binding is “no binding”.

Results are given in words; binding and its absence hold for the method and conditions named.
